For one assay, the target named is His-SMAD2 (UniProt Q15796). The assay can be described thus: pull-down; His-tagged SMADs (20 nM) held on His-tag Dynabeads; increasing concentrations of GST-OGG1 in pull-down buffer (3.25 mM sodium phosphate, 70 mM NaCl, 0.01% Tween-20), 10 min at RT; OGG1 detected by western blot; both purified. In general terms: In western blotting, separated proteins are transferred to a membrane and probed.

Protein sequences, listed by entry. Tags and fused reporters are not part of them.
UniProt Q15796: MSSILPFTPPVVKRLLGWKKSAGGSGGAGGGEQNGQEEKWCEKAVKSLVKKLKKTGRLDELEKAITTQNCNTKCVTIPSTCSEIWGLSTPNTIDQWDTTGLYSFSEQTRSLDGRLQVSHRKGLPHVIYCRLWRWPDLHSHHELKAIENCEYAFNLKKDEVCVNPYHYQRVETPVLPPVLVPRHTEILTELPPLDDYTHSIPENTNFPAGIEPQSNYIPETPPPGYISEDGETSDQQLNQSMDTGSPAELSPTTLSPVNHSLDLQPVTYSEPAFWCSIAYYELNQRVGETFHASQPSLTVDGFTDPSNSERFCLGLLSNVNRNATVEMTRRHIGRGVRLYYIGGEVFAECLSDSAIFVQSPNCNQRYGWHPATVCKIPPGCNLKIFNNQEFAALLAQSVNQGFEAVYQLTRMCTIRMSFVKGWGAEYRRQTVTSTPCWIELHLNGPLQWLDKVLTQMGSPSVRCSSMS
UniProt P84022: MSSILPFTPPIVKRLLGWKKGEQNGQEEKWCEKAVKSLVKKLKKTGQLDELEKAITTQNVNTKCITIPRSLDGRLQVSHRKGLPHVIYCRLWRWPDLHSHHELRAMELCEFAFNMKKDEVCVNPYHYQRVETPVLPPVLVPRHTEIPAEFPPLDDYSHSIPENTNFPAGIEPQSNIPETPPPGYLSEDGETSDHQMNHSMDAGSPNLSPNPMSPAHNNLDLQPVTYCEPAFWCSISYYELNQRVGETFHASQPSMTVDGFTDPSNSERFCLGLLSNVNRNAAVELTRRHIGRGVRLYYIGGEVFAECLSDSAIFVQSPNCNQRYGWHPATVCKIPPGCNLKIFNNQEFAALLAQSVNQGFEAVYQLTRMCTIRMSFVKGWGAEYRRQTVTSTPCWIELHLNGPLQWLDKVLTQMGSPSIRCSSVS
UniProt O15527: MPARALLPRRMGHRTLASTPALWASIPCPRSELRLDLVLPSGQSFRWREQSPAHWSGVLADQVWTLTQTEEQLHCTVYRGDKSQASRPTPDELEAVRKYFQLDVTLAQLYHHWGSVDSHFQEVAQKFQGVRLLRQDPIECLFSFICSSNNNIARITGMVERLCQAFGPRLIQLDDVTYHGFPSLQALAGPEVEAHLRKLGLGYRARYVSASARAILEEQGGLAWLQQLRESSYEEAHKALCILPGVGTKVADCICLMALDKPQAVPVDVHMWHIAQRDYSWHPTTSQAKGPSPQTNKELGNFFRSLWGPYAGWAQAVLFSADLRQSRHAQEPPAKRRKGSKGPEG

The next assay concerns the target His-SMAD3 (UniProt P84022). Described as above.
The target in assay [1] is Flag-OGG1 (8-oxoguanine DNA glycosylase 1, ectopically expressed) (UniProt O15527). The assay can be described thus: co-IP; nuclear lysate of Flag-OGG1 expressing hSAECs (mock or TGFβ1 treated), Benzonase digested; IP with anti-Flag and blot with anti-pSMAD3, and IP with anti-pSMAD3 and blot with anti-Flag; 4°C overnight.
For assay [2] the target is unchanged. The assay can be described thus: proximity ligation; Duolink in situ PLA in Flag-OGG1 expressing hSAECs, mock or TGFβ1 treated, with or without TH5487 pretreatment; anti-Flag (mouse) and anti-pSMAD3 (rabbit) primary antibodies; nuclear speckles counted.

These are yes or no findings as the source states them, for the method shown. For some of these results: Binding seen in cells or lysates may run through a third protein. Some entries that bind do so weakly or less than the wild type.

For the substance “GST-OGG1 (from UniProt O15527 1-345) (enzyme)”, the binding entry in the assay with His-SMAD2 and with His-SMAD3 was “binds” in each case.

Consider “phosphorylated SMAD3 (pSMAD3) (from UniProt P84022 1-425)”, for which the binding result in assay [1] and in assay [2] was “binds” throughout.

These data come from publication PMC9943661.
